Laboratory results taken from ChEMBL document CHEMBL1126811, “Fluorinated and iodinated dopamine agents: D2 imaging agents for PET and SPECT” (J Med Chem, 1993).

Species: Rattus norvegicus
Assay: Inhibition constant on radiolabeled [125I]FIDA1 binding to rat striatal membranes
Parameters: species or system Striatum, Membrane
In short: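 Rat striatal membrane homogenate (40–60 μg protein) incubated with 125I-labeled ligand ± competitors in 0.2 mL assay buffer, 15 min at 37 °C with stirring. Filtered on protamine-pretreated (0.2%) GF/B filters, washed with cold 50 mM Tris-HCl pH 7.4, gamma-counted. Nonspecific binding defined with 10 μM (+)-butaclamol. Scatchard and competition data fitted by iterative nonlinear least squares.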

SMILES: CC(C)NCC(O)COc1cccc2ccccc12 (racemic) [PROPRANOLOL]
- Ki: > 10 µM
